Article PMC7862700
The entries are a selection whose mix differs from that of the whole data set. At the low end of the ranking the order means little.

The chains behind the UniProt entries cited, without tags or fusion partners. Where a name states a change or a piece, a line headed by the entry shows the natural chain unless it says otherwise.
UniProt Q01892: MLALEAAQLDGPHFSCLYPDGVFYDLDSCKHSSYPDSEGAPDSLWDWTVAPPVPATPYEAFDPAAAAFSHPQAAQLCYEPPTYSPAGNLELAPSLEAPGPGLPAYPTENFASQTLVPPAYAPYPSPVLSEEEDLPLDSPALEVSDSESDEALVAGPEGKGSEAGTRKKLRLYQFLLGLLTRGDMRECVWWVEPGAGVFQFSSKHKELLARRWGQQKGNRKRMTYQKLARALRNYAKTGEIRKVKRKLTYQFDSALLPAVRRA

target: T1, FLI1 (UniProt Q01543); test: DAPPL (digital affinity profiling via proximity ligation, sequencing); conditions: 10 mM Tris-HCl pH 7.5, 50 mM NaCl, 1 mM DTT, 4% glycerol, room temperature, 30 min; GST-TFs on glutathione beads, 16-mer random dsDNA library, 0.1% …; high values mean tight binding; double strand, one strand shown; scale: fold enrichment (6-mer frequency, TF over GST control)
T1 sequence: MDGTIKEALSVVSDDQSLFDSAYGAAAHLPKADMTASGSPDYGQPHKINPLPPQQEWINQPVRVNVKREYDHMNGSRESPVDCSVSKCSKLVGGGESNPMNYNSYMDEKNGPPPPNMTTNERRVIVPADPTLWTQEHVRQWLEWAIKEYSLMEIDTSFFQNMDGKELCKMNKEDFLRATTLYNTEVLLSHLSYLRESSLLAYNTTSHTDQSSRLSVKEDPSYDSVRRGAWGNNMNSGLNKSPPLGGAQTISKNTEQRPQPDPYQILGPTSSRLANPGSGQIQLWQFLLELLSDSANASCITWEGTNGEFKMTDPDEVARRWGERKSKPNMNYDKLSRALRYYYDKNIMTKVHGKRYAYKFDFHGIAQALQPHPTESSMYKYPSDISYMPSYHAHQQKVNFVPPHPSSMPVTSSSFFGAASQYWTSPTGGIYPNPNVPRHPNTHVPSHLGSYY

Sequence	binding signal
TTGTGT	1.25
CTTGTA	1.5
CGCGCG	0.92
ACGTAA	1.07
CCACGA	1.18
AAAGTA	1.14
TCCGCT	2.39
TGTCTG	1
AGCCTT	1.12
GCTGGC	1.01
GTATCC	1.88
AAGGGC	1.06
ATCCTC	1.48
ATTCCT	1.46
TCCTTC	2.2
TATACG	1.32
CTCAAG	1.29
CACAGC	0.989
TGTTTT	1.36
ATATCA	1.23

Sequence	binding signal
GCCTTA	1.15
ACGATG	1.24
AAGCGG	1.13
CCCGAA	1.44
TATCAA	1.1
TGACTA	1.14
AGCACA	0.984
CGACAT	1.37
GCACGC	1.03
GTCCCC	1.14
TTCCGC	3.03
CAAGAT	1.04
AGTATT	1.12
TGCGAC	1.2
CACTGT	1.12
GTTTGA	1.29
TCGCCC	1.34
TCTTAT	1.41
TTTCTG	1.4

target: T2, EHF (UniProt Q9NZC4); test: as above; conditions: 10 mM Tris-HCl pH 7.5, 50 mM NaCl, 1 mM DTT, 4% glycerol, room temperature, 30 min; GST-TFs on glutathione beads, 16-mer random dsDNA library, 0.1% …; high values mean tight binding; double strand, one strand shown; scale: fold enrichment (6-mer frequency, TF over GST control)
T2 sequence: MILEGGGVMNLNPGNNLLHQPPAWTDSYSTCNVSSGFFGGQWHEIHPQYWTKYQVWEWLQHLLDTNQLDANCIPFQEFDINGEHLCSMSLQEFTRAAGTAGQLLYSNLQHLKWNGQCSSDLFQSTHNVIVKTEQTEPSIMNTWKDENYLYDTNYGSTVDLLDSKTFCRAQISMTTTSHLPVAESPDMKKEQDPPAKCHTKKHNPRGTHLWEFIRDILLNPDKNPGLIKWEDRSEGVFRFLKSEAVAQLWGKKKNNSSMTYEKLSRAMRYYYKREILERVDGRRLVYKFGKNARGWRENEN

Sequence	binding signal
CTTGTA	1.42
CGCGCG	0.937
TCCGCT	2.33
TGTCTG	0.989
AGCCTT	1.15
GCTGGC	0.978
GTATCC	1.92
AAGGGC	1.01
ATTCCT	1.34
CTCAAG	1.21
CACAGC	1.02
TGTTTT	1.35
ATATCA	1.15
GCCTTA	1.11
TATCAA	0.996
TGACTA	1.11
AGCACA	1.04
CGACAT	1.26
GCACGC	1.15
GTCCCC	1.28
AGTATT	1.15
GTTTGA	1.06
TCTTAT	1.16

target: SPIB (UniProt Q01892); test: as above; conditions: 10 mM Tris-HCl pH 7.5, 50 mM NaCl, 1 mM DTT, 4% glycerol, room temperature, 30 min; GST-TFs on glutathione beads, 16-mer random dsDNA library, 0.1% …; high values mean tight binding; double strand, one strand shown; scale: fold enrichment (6-mer frequency, TF over GST control)

Sequence	binding signal
TTGTGT	1.25
CTTGTA	1.44
ACGTAA	0.944
CCACGA	1.06
AAAGTA	1.18
TCCGCT	2.37
TGTCTG	1.16
GCTGGC	0.975
AAGGGC	0.912
ATCCTC	1.41
ATTCCT	1.43
TCCTTC	2.16
TATACG	1.35
CACAGC	1.05
GCCTTA	1.27
ACGATG	1.18
AAGCGG	1.03
CCCGAA	1.27
TATCAA	0.988
AGCACA	0.996
GCACGC	1.19
TTCCGC	3.15
CAAGAT	1.01
TGCGAC	1.27
CACTGT	1.22
GTTTGA	1.16
TCGCCC	1.25
TTTCTG	1.3
